Assay [1] has as its target T1, MBP–LSU1 (Arabidopsis thaliana) (UniProt Q9SCK1).
T1 sequence: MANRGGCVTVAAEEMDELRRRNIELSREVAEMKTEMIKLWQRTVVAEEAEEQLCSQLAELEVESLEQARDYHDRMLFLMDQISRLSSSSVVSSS
Put plainly: pull-down; Glutathione agarose coated with GST–FSD2, equimolar purified MBP–LSU1 and/or MBP–NIMIN1, MBP–AvrXccC, MBP–AvrB2 or MBP–HopR1, 100 µl PBS, 3 h at 4 °C; four washes with PBS; western blot with anti-MBP, band intensity quantified; both purified. Background: A western blot detects proteins with antibodies after separation by electrophoresis.

Chains of the proteins cited; added tags and fusions are not shown. Lines headed by an entry give the natural chain unless they say otherwise; changes in a name come on top.
UniProt Q88A90: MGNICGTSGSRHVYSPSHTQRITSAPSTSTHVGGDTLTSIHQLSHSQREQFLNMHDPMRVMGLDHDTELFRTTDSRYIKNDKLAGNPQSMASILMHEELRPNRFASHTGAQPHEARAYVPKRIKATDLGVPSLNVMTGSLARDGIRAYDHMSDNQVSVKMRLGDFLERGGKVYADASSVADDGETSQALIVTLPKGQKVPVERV
UniProt Q48B66: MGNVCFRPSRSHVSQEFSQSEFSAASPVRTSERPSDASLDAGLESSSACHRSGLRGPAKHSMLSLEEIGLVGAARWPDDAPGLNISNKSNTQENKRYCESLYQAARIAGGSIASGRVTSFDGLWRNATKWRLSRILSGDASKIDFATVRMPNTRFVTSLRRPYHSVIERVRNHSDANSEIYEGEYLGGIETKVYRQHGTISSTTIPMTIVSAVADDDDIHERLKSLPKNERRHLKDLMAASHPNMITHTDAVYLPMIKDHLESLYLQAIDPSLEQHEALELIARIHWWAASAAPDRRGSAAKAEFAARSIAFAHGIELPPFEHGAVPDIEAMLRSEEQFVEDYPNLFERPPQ

Assay [2] deals with DB fusion with AvrB2esh (P. syringae pv. phaseolica (Psp)). Put plainly: two-hybrid; ORFs in pDEST-AD (GAL4 AD) against ORFs in pDEST-DB (GAL4 DB); diploid yeast, growth on selective media.
Assay [3] has as its target DB fusion with AvrB2pph (P. syringae pv. phaseolica (Psp)). Described as above.
Assay [4] has as its target DB fusion with HopF3 (Pseudomonas syringae pv. tomato) (UniProt Q88A90). Described as above.
Assay [5] concerns the target DB fusion with HopAT1 (Pseudomonas syringae pv. tomato). Described as above.
In assay [6] the target is DB fusion with AvrXccC (Xanthomonas campestris pv. campestris). The assay is described as above.

No constants are given. Whether binding was seen depends on the method and setting. Binding can be weak; no strength is given. Sequences can lack the tags named with a protein.

As to MBP–AvrB2 (from UniProt Q48B66), in assay [1], the binding result was “binds”.
“MBP–AvrXccC (Xanthomonas campestris pv. campestris)”: the binding entry in assay [1] is listed as “binds”.

B1: GAL4 activation domain (AD)–LSU1 (protein, UniProt Q9SCK1 1-94)
chain: MANRGGCVTVAAEEMDELRRRNIELSREVAEMKTEMIKLWQRTVVAEEAEEQLCSQLAELEVESLEQARDYHDRMLFLMDQISRLSSSSVVSSS
For B1, the binding entry in assay [2], in assay [3], in assay [4], in assay [5] and in assay [6] was “binds” in each case.

The values above are taken from PMC5441861.
